Assay results as given in the supplement of paper PMC11542785.
Where a name gives a salt, the structure may show the parent alone. The list shows a part of the results. Repeats are few or missing, and single values can be far off.

Tested on: Drosophila melanogaster DPAGT1 (Alg7) RNAi eye model
Assay: eye size Z-score vs DMSO-treated DPAGT1 model flies; higher = larger eye (suppression of DPAGT1 phenotype)
Settings: 5 uM

Compound	eye size Z-score	eye size Z-score (female)
O=C(CCCN1CCC2(CC1)C(=O)NCN2c1ccccc1)c1ccc(F)cc1 [Spiperone]	0.71	
CC(N)C(O)c1ccccc1 (stereo not drawn) [Phenylpropanolamine hydrochloride]	-1.13	
C=C1CC[C@@]2(O)[C@H]3Cc4ccc(O)c5c4[C@@]2(CCN3CC2CC2)[C@H]1O5 [Nalmefene hydrochloride]	-0.32	
O=[N+]([O-])O[C@H]1CO[C@H]2[C@@H]1OC[C@H]2O[N+](=O)[O-] [Isosorbide dinitrate]	0.3	
NCC1(CC(=O)O)CCCCC1 [Gabapentin]		0.1
CC(O)(CS(=O)(=O)c1ccc(F)cc1)C(=O)Nc1ccc(C#N)c(C(F)(F)F)c1 (stereo not drawn) [Bicalutamide]	0.07	
CCOC(=O)c1cncn1[C@H](C)c1ccccc1 [Etomidate]	0.31	
Cc1cc(C(C#N)c2ccc(Cl)cc2)c(Cl)cc1NC(=O)c1cc(I)cc(I)c1O (stereo not drawn) [Closantel]	1.08	
C[C@@H]1C[C@@H]([C@H](O)CC2CC(=O)NC(=O)C2)C(=O)[C@@H](C)C1 [Cycloheximide]	0.67	
CCC1(C2=NCCN2)Cc2ccccc2O1 (stereo not drawn) [Efaroxan hydrochloride]	0.67	
CC[C@@H](CO)NC(=O)[C@@H]1C=C2c3cccc4[nH]cc(c34)C[C@H]2N(C)C1 [Methylergometrine maleate]	0.75	
COc1cc2c(c(OC)c1OC)-c1ccc(OC)c(=O)cc1[C@@H](NC(C)=O)CC2 [Colchicine]	-0.36	
C[C@]12CC[C@H](O)CC1=CC[C@@H]1[C@@H]2CC[C@]2(C)C(=O)CC[C@@H]12 [Prasterone]	0.37	
CC[N+]1(C)CCCC(OC(=O)C(O)(c2ccccc2)c2ccccc2)C1 (stereo not drawn) [Pipenzolate bromide]	0.08	
c1ccc2c(c1)OCC(C1=NCCN1)O2 (stereo not drawn) [Idazoxan hydrochloride]	0.63	
CCCCCC[C@H]1C(=O)O[C@H](C)[C@H](NC(=O)c2cccc(NC=O)c2O)C(=O)O[C@@H](C)[C@@H]1OC(=O)CC(C)C [Antimycin A]	0.05	
CC(C)c1cccc(C(C)C)c1O [Propofol]	-0.28	
C[C@]12CC[C@H](O)C[C@H]1CC[C@@H]1[C@@H]2CC[C@]2(C)[C@@H](C3=CC(=O)OC3)CC[C@]12O [Digitoxigenin]	-0.87	
Oc1ccc2c3c1O[C@H]1[C@@H](O)CC[C@@]4(O)[C@@H](C2)N(CC2CCC2)CC[C@]314 [Nalbuphine hydrochloride]	0.52	
O=C(NCNC(=O)NC1C(=O)NC(=O)N1CO)NC1C(=O)NC(=O)N1CO (stereo not drawn) [Imidurea]	0.38	
CC(=O)O[C@H]1CC[C@@]2(C)C(=CC[C@@H]3[C@@H]2CC[C@]2(C)C(=O)CC[C@@H]32)C1 [Dehydroisoandosterone 3-acetate]	0.85	
CN1C[C@H](CNC(=O)OCc2ccccc2)C[C@@H]2c3cccc4c3c(cn4C)C[C@H]21 [Metergoline]	0.17	
C=CCN1CC[C@]23c4c5ccc(O)c4O[C@H]2C(=O)CC[C@@]3(O)[C@H]1C5 [Naloxone hydrochloride]	-0.68	

Compound	eye size Z-score	eye size Z-score (female)
CCCC(C)C1(CC)C(=O)NC(=O)NC1=O (stereo not drawn) [Pentobarbital]	0.7	
CCCC[N+]1(C)[C@@H]2C[C@@H](OC(=O)[C@H](CO)c3ccccc3)C[C@H]1[C@@H]1O[C@@H]12 (stereo partly drawn) [N-Butylscopolammonium bromide]	0.16	
C[C@]12CCC(=O)C=C1C=C[C@@H]1[C@@H]2CC[C@@]2(C)[C@H]1CC[C@@]2(O)CCC(=O)O [Canrenoic acid potassium salt]	-0.09	
CC[C@@H](C(=O)[C@@H](C)[C@@H](O)[C@H](C)[C@@H]1O[C@@H]([C@@H](CC)C(=O)O)CC[C@@H]1C)[C@H]1O[C@]2(C=C[C@@H](O)[C@]3(CC[C@@](C)([C@H]4CC[C@](O)(CC)[C@H](C)O4)O3)O2)[C@H](C)C[C@@H]1C [Salinomycin sodium]	1.58	
Cc1cccc(C)c1NC(=O)CN1CCCC1=O [Nefiracetam]	0.55	
NCC(O)c1ccc(O)cc1 (stereo not drawn) [Octopamine hydrochloride]	-0.46	
c1ccc2c(c1)Nc1ccccc1S2 [Phenothiazine]	0.88	
O=c1c2ccccc2[se]n1-c1ccccc1 [Ebselen]	0.76	
CC(=O)O[C@H]1C[C@@H]2CC[C@@H]3[C@H](CC[C@@]4(C)[C@H]3C[C@H]([N+]3(C)CCCCC3)[C@@H]4OC(C)=O)[C@@]2(C)C[C@@H]1[N+]1(C)CCCCC1 [Pancuronium bromide]	0.79	
CN[C@@H]1[C@@H](O)[C@@H](O[C@@H]2[C@@H](O)[C@H](O[C@H]3O[C@H](CN)CC[C@H]3N)[C@@H](N)C[C@H]2N)OC[C@]1(C)O.CN[C@@H]1[C@@H](O)[C@@H](O[C@@H]2[C@@H](O)[C@H](O[C@H]3O[C@H]([C@@H](C)N)CC[C@H]3N)[C@@H](N)C[C@H]2N)OC[C@]1(C)O.CN[C@@H]1[C@@H](O)[C@@H](O[C@@H]2[C@@H](O)[C@H](O[C@H]3O[C@H]([C@@H](C)NC)CC[C@H]3N)[C@@H](N)C[C@H]2N)OC[C@]1(C)O [Gentamicine sulfate]	0.48	
O=C1CC[C@@]2(O)[C@H]3Cc4ccc(O)c5c4[C@@]2(CCN3CC2CC2)[C@H]1O5 [Naltrexone hydrochloride dihydrate]	0.11	
NCC(CC(=O)O)c1ccc(Cl)cc1 (stereo not drawn) [Baclofen]	0.11	
CN1CCC2(C)c3cc(O)ccc3N(C)C12 (single isomer, unassigned; (-)) [(-) Eseroline fumarate salt]	0.64	
CC(NC(C)(C)C)C(=O)c1cccc(Cl)c1 (stereo not drawn) [Bupropion hydrochloride]	1.08	
C#C[C@]1(O)CC[C@H]2[C@@H]3CCC4=CC(=O)CCC4=C3C=C[C@@]21CC [Gestrinone]	1.57	
CN1[C@@H]2C[C@@H](OC(=O)[C@H](CO)c3ccccc3)C[C@H]1[C@@H]1O[C@@H]12 [Scopolamine hydrochloride]	0.6	
N[C@@H]1C[C@H]1c1ccccc1 [Tranylcypromine hydrochloride]	0.07	
C#CCN(C)[C@H](C)Cc1ccccc1 [Selegiline hydrochloride]	-0.39	
CN(C)C(=O)Oc1ccc[n+](C)c1 [Pyridostigmine iodide]	-1.04	
CC1OC(OC2/C=C/C=C/C=C/C=C/CC/C=C/C=C/[C@H](C)[C@@H](O)[C@@H](C)[C@H](C)OC(=O)CC(O)CC(O)CC(O)CCC(O)C(O)C[C@]3(O)CC(O)C(C(=O)O)C(C2)O3)C(O)C(N)C1O (stereo partly drawn) [Nystatine]	-0.65	
NCCCNCCSP(=O)(O)O [Amifostine]	0.55	
CNCC(O)c1ccc(O)cc1 (stereo not drawn) [Synephrine]	1.05	
CC(C)C[C@H]1C(=O)N2CCC[C@H]2[C@]2(O)O[C@](NC(=O)[C@@H]3C=C4c5cccc6[nH]c(Br)c(c56)C[C@H]4N(C)C3)(C(C)C)C(=O)N12 [Bromocryptine mesylate]	0.32	

Exported in markdown: part of the list above

| Compound | eye size Z-score | eye size Z-score (female) |
| --- | --- | --- |
| O=[N+]([O-])O[C@H]1CO[C@H]2[C@@H]1OC[C@H]2O[N+](=O)[O-] [Isosorbide dinitrate] | 0.3 |  |
| CC(C)c1cccc(C(C)C)c1O [Propofol] | -0.28 |  |
| O=C(NCNC(=O)NC1C(=O)NC(=O)N1CO)NC1C(=O)NC(=O)N1CO (stereo not drawn) [Imidurea] | 0.38 |  |
| O=c1c2ccccc2[se]n1-c1ccccc1 [Ebselen] | 0.76 |  |

(continued)

Compound	eye size Z-score	eye size Z-score (female)
CN1[C@@H]2CC[C@H]1C[C@@H](OC(=O)C(CO)c1ccccc1)C2 (stereo partly drawn) [Atropine sulfate monohydrate]	-0.31	
CNC(C)(C)Cc1ccccc1 [Mephentermine hemisulfate]	-0.41	
C[C@]12CCC(=O)C(O)=C1CC[C@@H]1[C@@H]2CC[C@]2(C)C(=O)CC[C@@H]12 [Formestane]	-1.2	
COc1ccc(C(CN(C)C)C2(O)CCCCC2)cc1 (stereo not drawn) [Venlafaxine]	0.18	
CNC(=O)Oc1ccc2c(c1)[C@]1(C)CCN(C)[C@@H]1N2C [Eserine hemisulfate salt]	0.16	
CCN(CC)CCOC(=O)C(O)(c1ccccc1)c1ccccc1 [Benactyzine hydrochloride]	1.64	
CN(C)C(=O)Oc1cccc([N+](C)(C)C)c1 [Neostigmine bromide]	1.51	
CC(C)(N)Cc1ccccc1 [Phentermine hydrochloride]	-0.37	
CCNCC(O)c1cccc(O)c1 (stereo not drawn) [Etilefrine hydrochloride]	1.27	
COC[C@@H](NC(C)=O)C(=O)NCc1ccccc1 [Lacosamide]	-0.17	
C[C@]12C/C(=C/O)C(=O)C[C@@H]1CC[C@@H]1[C@@H]2CC[C@@]2(C)[C@H]1CC[C@]2(C)O [Oxymetholone]	0.36	
CC(=O)[C@H]1CC[C@H]2[C@@H]3CC[C@H]4C[C@H](O)CC[C@]4(C)[C@H]3C(=O)C[C@]12C [Alfaxalone]	0.88	
C=C1C[C@@H]2[C@H](CC[C@]3(C)C(=O)CC[C@@H]23)[C@@]2(C)C=CC(=O)C=C12 [Exemestane]	0.07	
C[C@]12COC(=O)C[C@@H]1CC[C@@H]1[C@@H]2CC[C@@]2(C)[C@H]1CC[C@]2(C)O [Oxandrolone]	0.88	
O=P1(N(CCCl)CCCl)NCCCO1 (stereo not drawn) [Cyclophosphamide]	0.97	
CN1C(=O)CCS(=O)(=O)C1c1ccc(Cl)cc1 (stereo not drawn) [Chlormezanone]	-0.53	
CC(=O)NC1CCSC1=O (stereo not drawn) [Citiolone]	0.79	
C=CCC1(CC(C)C)C(=O)NC(=O)NC1=O [Butalbital]	0.17	
O=C(CCCN1CCC(n2c(=O)[nH]c3ccccc32)CC1)c1ccc(F)cc1 [Benperidol]	0.42	
C[C@@H]1CN([C@H]2CC[C@](C#N)(c3ccc(F)cc3)CC2)CC[C@]1(C(=O)O)c1ccccc1 [Levocabastine hydrochloride]	0.2	
COc1ccc(OC)c(C(O)C(C)N)c1 (stereo not drawn) [Methoxamine hydrochloride]	-0.19	
CCC(=O)O[C@H]1CC[C@H]2[C@@H]3CCC4=CC(=O)CC[C@]4(C)[C@H]3CC[C@]12C [Testosterone propionate]	-0.19	
